# Library screening results

A: 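Whole-cell assay for inhibitors of Mycobacterium tuberculosis growth, labelled Cornell in the record; the read-out is not stated. The concentration is filed as 10 mM, unlikely as a test dose, so the dose is not known. The record gives no direction; compounds strong in two other growth screens of this library score well above the rest, so higher reads as stronger inhibition. About 53,000 compounds were tested under these conditions; 1.7% (about 900) showed 50% or more at least once.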
B: 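Assay on Mycobacterium tuberculosis, filed only as a heat shock assay from Cornell; the read-out is not stated. The concentration is filed as 10 mM, unlikely as a test dose, so the dose is not known. Higher reads as stronger inhibition (inferred: compounds with an IC50 in retests scored well above the rest). Size under these conditions: about 69,000 compounds, about 930 of them at 50% or above in at least one test.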

Results are given as percent effect.
How 0% and 100% were set is not recorded. Most values in the screen are low, and negative values occur.
Compounds were drawn at random from those tested, without regard to their results.

structure: [H][C@@]12CS(=O)(=O)C[C@]1([H])N(C(=O)c1ccc(COC)o1)CCN2CCOC
A: 6.665%
B: -6.271%

structure: NC(=O)C1CCN(C(=O)c2cccn2Cc2cccs2)CC1
B: -5.949%

structure: CC1CCCCN1C1CN(c2nc(C3CCCC3)nc3c2cnn3C)C1 (stereo not drawn)
A: 17.09%
B: -37.05%

structure: Cc1cccc(=O)n1CCCNc1ncnc2c1CCNCC2
B: -14.32%

structure: CC(C)(C)OC(=O)NCC1CCCCN1Cc1ccncc1 (stereo not drawn)
B: 24.03%

structure: CN(Cc1nnc(C2CC2)o1)C1CCN(CCCc2cnn(C)c2)C1 (stereo not drawn)
B: -6.121%

structure: CCOCCN1CCN(Cc2nc(CC(C)C)no2)CC1
B: -1.813%

structure: N#Cc1cccnc1N[C@@H]1c2ccccc2C[C@@H]1O
A: -1.991%
B: -30.64%

structure: CC(C)(C)CC(=O)N1CSCC1C(=O)NC1=NCCS1 (stereo not drawn)
B: -6.725%

structure: O=C(NCc1ccccn1)N(Cc1ccc(F)cc1F)C1CC1
A: 36.21%
B: 30.04%

structure: CCN(Cc1ccoc1)C(=O)c1ccncc1O
B: 6.119%

structure: NC(=O)N1CCC2(CC1)CN(c1ncccn1)CCO2
A: 10.78%
B: 4.935%

structure: COCC(=O)NC1CC2(CCN(CC3CC3)CC2)Oc2ccccc21.O=C(O)C(F)(F)F (stereo not drawn)
A: -18.09%
B: -26.45%

structure: O=C(O)C(F)(F)F.[H][C@@]12CCN(C(=O)c3cscn3)[C@@]1([H])CCN2C1CCOC1 (stereo partly drawn)
A: -1.616%
B: 5.753%

structure: Cc1ccsc1CCNC(=O)CCC(=O)NC1CCCC1
A: 12.58%
B: 21.58%

structure: O=C(O)[C@@H]1CN(C2CCOCC2)C[C@H]1C1CC1
A: 0.5825%
B: 1.89%

structure: O=C(CCS(=O)(=O)C1CCCC1)NCc1ccccc1Cn1cncn1
A: 0.2763%
B: -12.75%

structure: Cc1cnn(CCNC(C)c2nnc(-c3cccc(Cl)c3)o2)c1 (stereo not drawn)
A: 7.34%
B: 4.388%

structure: Cn1ccnc1COc1ccc(CSc2nnnn2C)cc1
A: 12.53%
B: 2.581%

structure: CSC(C)C(=O)NCCC(=O)N1CCN(c2ccccn2)CC1 (stereo not drawn)
A: 29.17%
B: 2.738%

structure: COCC(=O)N1CCCC1c1cccc(Nc2ncc(C)s2)n1 (stereo not drawn)
A: 7.221%
B: 102.5%

structure: CCCN1CCc2[nH]cnc2C12CCN(C(=O)CCn1cccn1)CC2
B: -12.29%

structure: COc1cccc(N2CC3(CCN(C(=O)NC(C)C)C3)CC2=O)c1 (stereo not drawn)
A: 13.87%
B: 2.294%

structure: Cc1ncsc1-c1nnc(C2CCN(CC3CCCCC3)CC2)o1
B: -25.64%

structure: CNC(=O)COC1COC2(CCN(c3ncccn3)CC2)C1.O=C(O)C(F)(F)F (stereo not drawn)
A: 7.447%
B: 3.028%

structure: O=C(O)C(F)(F)F.O=C(O)C(F)(F)F.[H][C@@]12CCCO[C@]1([H])[C@H](N(C)Cc1ccco1)CN(CC1CCOCC1)C2
A: -1.92%
B: -39.62%

structure: Cc1ccc(NC(=O)c2nc(N3CCCCC3)ncc2Cl)cc1I
B: 4.79%

structure: NC1CCc2c(ccc(=O)n2CC2CC2)C1 (stereo not drawn)
B: -11.24%

structure: O=C(NC1CC1)C1CN(C(=O)c2cnccn2)C1
A: 8.728%
B: 14.37%

structure: CCCN1CCc2c(C(=O)N(C)Cc3ccccn3)nn(C)c2C1.O=C(O)C(F)(F)F.O=C(O)C(F)(F)F.O=C(O)C(F)(F)F
A: 1.988%
B: 4.399%

structure: Oc1ccc(Br)c(CNc2cccc(-c3nnc[nH]3)c2)c1
B: 13.6%

structure: CCOCCn1nc(C)cc1C(=O)N(C)Cc1cccc2ncccc12
A: 0.5828%
B: -2.362%

structure: COc1ccccc1OCc1cc(C(=O)N2[C@H](C)CC[C@@H]2C)n[nH]1
A: 1.983%
B: -8.156%

structure: CC1CCc2nn(CCNC(=O)c3ccco3)c(=O)cc2C1 (stereo not drawn)
A: -13.73%
B: -1.719%

structure: COc1ccc2c(c1)C(C(=O)N(C)CCn1ccnc1C)CC(=O)N2 (stereo not drawn)
A: 11.51%
B: -15.94%

structure: [H][C@@]12CCN(C(=O)Cc3ccccc3F)C[C@]1(COC)CCO2
A: 16.45%
B: 2.616%

structure: C[C@@H](NC(=O)c1cnccn1)c1c(-c2ccc(F)cc2)noc1C(=O)O
B: -37.14%

The first 4 entries again:

{"structure": "[H][C@@]12CS(=O)(=O)C[C@]1([H])N(C(=O)c1ccc(COC)o1)CCN2CCOC", "A": 6.665, "B": -6.271}
{"structure": "NC(=O)C1CCN(C(=O)c2cccn2Cc2cccs2)CC1", "B": -5.949}
{"structure": "CC1CCCCN1C1CN(c2nc(C3CCCC3)nc3c2cnn3C)C1", "stereo": "stereo not drawn", "A": 17.09, "B": -37.05}
{"structure": "Cc1cccc(=O)n1CCCNc1ncnc2c1CCNCC2", "B": -14.32}

The values are deposited in ChEMBL (CHEMBL3988442, “University of Dundee, Small-Polar-MMV Screening Library” (2021)).